# According to US20030236302A1, “Synthetic derivatives” (priority 2002, published 2003):
# For at least one compound, name, drawing or mass did not settle the structure.
# Test system: TNFα
# Experiment: TNFα production in IFN-primed, SAC-stimulated THP-1 cells (ELISA)
# Assay type: cell-based, Human
# Details: THP-1 cells primed by IFNα (100 U/mL) 22 h, stimulated with 0.025% SAC, supernatants after 24 h
# Experimental: Human monocytic THP-1 cells were primed by IFNα (100 U/mL) for 22 h and then stimulated with 0.025% SAC in the presence of different concentrations of a test compound. The test compounds were prepared in DMSO and the final DMSO concentration was adjusted to 0.25% in all cell cultures, including the compound-free control. Supernatants from the cultures were removed after 24 h, and assayed for productions of IL-12 and […]. Cell viability was assessed using the bioreduction of MTS [3-(4,5-dimethylthiazol-2-yl)-5-(3-carboxymethoxyphenyl)-2-(4-sulfophenyl)-2H-tetrazolium] (Promega, Madison, Wis.), with cell survival estimated as the ratio of the absorbance in compound-treated groups versus compound-free control. Human IL-12 p70 (heterodimer) and TNFα were assayed using ELISA kit from Endogen (Cambridge, Mass.), according to the manufacturer's instructions.
compound,measurement,value
"COC1=CC(=O)OC(C=Cc2ccc(C#N)cc2)C1 (stereo not shown) [Compound 13, 6-[2-(4-cyano-phenyl)-vinyl]-4-methoxy-5,6-dihydro-pyan-2-one]",IC50,100 µM
